Experimental data reported in US10131932B2, “Method for assaying a protease” (McMaster University, priority 2013, dated 2018).
At least one compound was matched to its structure with a doubt left.

Tested on: thrombin generation in whole blood
Test: Thrombin generation in unanticoagulated whole blood with FRET-protein substrate
Type: biochemical, human
Protocol: In this experiment, 12 μL of unanticoagulated human blood, obtained from a finger prick of a healthy human donor, was added to a plastic vessel (NUNC, Polystyrene, 384 well plate) containing the T13 FRET-protein substrate (8 μL in PIPES buffer, 4.6 μM final concentration) within 30 seconds of lancing the finger. Results were obtained on a fluorescence spectrophotometer, as above, temperature controlled to 37° C. Initially, as the mixture warms, the ratio of emission at 526 nm:581 nm decreases slightly, but then increases, initially sharply to a plateau as shown in FIG. 6.
The slope (first derivative) of the ratio was then determined using a mathematical program such as Excel or GraphPad Prism as shown in FIG. 7A. The curve of the slope of the ratio is smoothed using 20 neighbours using a mathematical program (Excel or GraphPad Prism). This is the typical appearance of a thrombin generation curve in plasma. Parameters that could be used to describe this curve include, but are not limited to, peak height, time to peak, lag time, maximal upslope, and area-under-the curve to a certain time point. FIG. 7B compares a) 12 μL blood combined with FRET-protein substrate (final conc. 4.6 μM) to final volume of 20 μL to b) 20 μL blood combined with FRET-protein substrate (final conc. 5.1 μM) to a final volume of 22.5 μL. The time-to-peak and lag-time are shortened and the peak height, maximal upslope and area-under-the-curve are increased in the latter where the blood is less dilute.
The effect of rivaroxaban on thrombin generation in the blood was determined. Unanticoagulated blood was taken from a finger prick of a healthy volunteer. The blood was added to a plastic vessel containing the FRET-protein substrate (0.62 μM) and rivaroxaban at various concentrations (to a final concentration of 5 μg/L, 25 μg/L and 50 μg/L).
The effect of apixaban on thrombin generation in the blood was also determined. Blood was added to FRET-protein substrate and various concentrations of apixaban was (to a final concentration of 25 μg/L, 100 μg/L, 400 μg/L and 1000 μg/L). Apixaban also alters the shape of the “slope of the ratio curve”.
The effect of dabigatran on thrombin generation in the blood was also determined. Blood was added to FRET-protein substrate and various concentrations of […] was (to a final concentration of 25 μg/L, 100 μg/L and 400 μg/L). Dabigatran also alters the shape of the “slope of the ratio curve”. […]

[1] = increasing amounts of anticoagulant in whole blood

[H]/N=C(/N)c1ccc(NCc2nc3cc(C(=O)N(CCC(=O)O)c4ccccn4)ccc3n2C)cc1 [dabigatran]
time to peak (anticoagulant in whole blood, dabigatran at higher concentrations): increase the time to peak | area-under-the-curve of slope of the ratio curve [1]: decreased | maximal upslope of slope of the ratio curve [1]: decreased | peak height of slope of the ratio curve [1]: decreased | thrombin generation [1]: decreases thrombin generation
